# Results from patent publication US20100260775A1 (Pfizer, published 2010).
# By UniProt entry, the sequences of proteins in these tests, tags left out. Residues count along the entry.
# UniProt P01138, residues 122-241: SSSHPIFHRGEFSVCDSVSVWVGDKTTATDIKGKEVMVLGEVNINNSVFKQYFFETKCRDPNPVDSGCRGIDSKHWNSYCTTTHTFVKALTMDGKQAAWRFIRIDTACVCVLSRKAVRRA
# No constants are given. Whether binding was seen depends on the method and setting. Some binding calls cover weakened binding; strength is not graded here.
# Target: human NGF (human, UniProt P01138 122-241, limits assumed)
# Assay: BIAcore affinity screening of L1/L2 library Fabs on human NGF
row,binding,Binder
1,binds,"L129 (light chain L1/L2 library clone) (Fab, V domains shown) VH: QVQLQESGPGLVKPSETLSLTCTVSGFSLIGYDINWIRQPPGKGLEWIGMIWGDGTTDYNSALKSRVTISKDTSKNQFSLKLSSVTAADTAVYYCARGGYYYGTSYYFDYWGQGTLVTVS VL: DIQMTQSPSSLSASVGDRVTITCRASQSISNNLNWYQQKPGKAPKLLIYYTSRFHSGVPSRFSGSGSGTDFTFTISSLQPEDIATYYCQQSKTLPYTFGQGTKLEIKR"
2,binds,"L208 (light chain L1/L2 library clone) (Fab, V domains shown) VH: QVQLQESGPGLVKPSETLSLTCTVSGFSLIGYDINWIRQPPGKGLEWIGMIWGDGTTDYNSALKSRVTISKDTSKNQFSLKLSSVTAADTAVYYCARGGYYYGTSYYFDYWGQGTLVTVS VL: DIQMTQSPSSLSASVGDRVTITCRASQYISNHLNWYQQKPGKAPKLLIYYTSRFHSGVPSRFSGSGSGTDFTFTISSLQPEDIATYYCQQSKTLPYTFGQGTKLEIKR"
3,binds,"L97 (light chain L1/L2 library clone) (Fab, V domains shown) VH: QVQLQESGPGLVKPSETLSLTCTVSGFSLIGYDINWIRQPPGKGLEWIGMIWGDGTTDYNSALKSRVTISKDTSKNQFSLKLSSVTAADTAVYYCARGGYYYGTSYYFDYWGQGTLVTVS VL: DIQMTQSPSSLSASVGDRVTITCRASQSISNQLNWYQQKPGKAPKLLIYYVSRFHSGVPSRFSGSGSGTDFTFTISSLQPEDIATYYCQQSKTLPYTFGQGTKLEIKR"
4,binds,"L81 (light chain L1/L2 library clone) (Fab, V domains shown) VH: QVQLQESGPGLVKPSETLSLTCTVSGFSLIGYDINWIRQPPGKGLEWIGMIWGDGTTDYNSALKSRVTISKDTSKNQFSLKLSSVTAADTAVYYCARGGYYYGTSYYFDYWGQGTLVTVS VL: DIQMTQSPSSLSASVGDRVTITCRAFQAISNQLNWYQQKPGKAPKLLIYYISRFHTGVPSRFSGSGSGTDFTFTISSLQPEDIATYYCQQSKTLPYTFGQGTKLEIKR"
5,binds,"L6 (light chain L1/L2 library clone) (Fab, V domains shown) VH: QVQLQESGPGLVKPSETLSLTCTVSGFSLIGYDINWIRQPPGKGLEWIGMIWGDGTTDYNSALKSRVTISKDTSKNQFSLKLSSVTAADTAVYYCARGGYYYGTSYYFDYWGQGTLVTVS VL: DIQMTQSPSSLSASVGDRVTITCRAFQSISNQLNWYQQKPGKAPKLLIYYASRFHSGVPSRFSGSGSGTDFTFTISSLQPEDIATYYCQQSKTLPYTFGQGTKLEIKR"
